At least one structure is not confirmed: it was looked up by name or label, or the drawing left a doubt.
System: anti-carbohydrate antibodies of baboon serums
Assay: Glycan array screening of baboon serums (406 glycans)
Type: binding, baboons (Papio anubis)
Details: 4 baboons
Text: Heterotopic pig heart and kidney were placed in the abdominal cavity of baboons as previously described (Schmoeckel M et al. 1998 Transplantation 65:1570-1577; Cozzi E et al. 1997 Transplantation. 64:1383-1392). Blood samples for anti-carbohydrate antibody analysis were obtained from each animal before transplantation and at acute humoral xenotransplant rejection (AHXR).
Three animals (D29, E19 and E7) were exposed to weekly injections of 5 cubic centimeters (cc) of PRBC three times and blood samples for anti-carbohydrate antibodies were analysed one week after last injection. Another animal received 7 daily injections of 5 cc of PRBC (C63), until an augment of the level of anti-pig hemolytic antibodies (APHA) was observed, and blood samples were analysed at days 2, 20 and 30 relative to the first PRBC injection.
The carbohydrate-binding specificity of baboon serums obtained before and after pig organ xenotransplantation or PRBC exposure was investigated on glycan array v4.1 comprised of 406 glycans (Consortium for Functional Glycomics, Protein-Glycan Interaction Core-H) (http://www.functionalglycomics.org). […] Pre and post-immunization samples from each animal were analysed in the same glycoarray study with exception of C63 day 20, which was performed in study #1577 whilst the other samples from this animal were analysed in study #1313. […]

CC(=O)N[C@H]1[C@H]([C@H](O)[C@H](O)CO)O[C@](OCCCN)(C(=O)O)C[C@@H]1O [Glycan 14, Neu5Acβ-Sp8, reference compound]
cases with antibodies within the top 20 increases after PRBC exposure: 3 out 4

Reference: patent US9719987B2, “Immunoadsorbent compositions comprising hyaluronic acid oligosaccharides” (FUNDACIO INSTITUT D'INVESTIGACIO BIOMEDICA DE BELLVITGE …, priority 2012, dated 2017)
